Some compounds share one wording; it may come from a single statement.
Test system: HeLa cells
Experiment: Subcellular localization on HeLa cells (fluorescence microscopy)
Format: cell-based, human
Parameters: key to Subcellular localization (HeLa): Ly, lysosomes; Me, membrane; Mi, mitochondria
Details: 12 h incubation; t.w. = this work
For CC[N+](CC)(CC)CCSc1cc2c(cc1SCC[N+](CC)(CC)CC)C1=Nc3c4cc(SCC[N+](CC)(CC)CC)c(SCC[N+](CC)(CC)CC)cc4c4[n]3[Zn][n]3c(c5cc(SCC[N+](CC)(CC)CC)c(SCC[N+](CC)(CC)CC)cc5c3=NC3=NC(=N4)c4cc(SCC[N+](CC)(CC)CC)c(SCC[N+](CC)(CC)CC)cc43)=NC2=N1.[I-].[I-].[I-].[I-].[I-].[I-].[I-].[I-] [C8Zn], the “Subcellular localization (HeLa)” value was “Ly”. In the case of Cc1cc(OCc2cn(CCOCCOCCO)nn2)c(Oc2cc3c(cc2Oc2c(OCc4cn(CCOCCOCCO)nn4)cc(C)cc2OCc2cn(CCOCCOCCO)nn2)C2=Nc4c5cc(Oc6c(OCc7cn(CCOCCOCCO)nn7)cc(C)cc6OCc6cn(CCOCCOCCO)nn6)c(Oc6c(OCc7cn(CCOCCOCCO)nn7)cc(C)cc6OCc6cn(CCOCCOCCO)nn6)cc5c5[n]4[Zn][n]4c(c6cc(Oc7c(OCc8cn(CCOCCOCCO)nn8)cc(C)cc7OCc7cn(CCOCCOCCO)nn7)c(Oc7c(OCc8cn(CCOCCOCCO)nn8)cc(C)cc7OCc7cn(CCOCCOCCO)nn7)cc6c4=NC4=NC(=N5)c5cc(Oc6c(OCc7cn(CCOCCOCCO)nn7)cc(C)cc6OCc6cn(CCOCCOCCO)nn6)c(Oc6c(OCc7cn(CCOCCOCCO)nn7)cc(C)cc6OCc6cn(CCOCCOCCO)nn6)cc54)=NC3=N2)c(OCc2cn(CCOCCOCCO)nn2)c1 [N6Zn], the “Subcellular localization (HeLa)” value is reported as “Ly”. For O=C([O-])c1cc(Oc2cc3c(cc2Oc2cc(C(=O)[O-])cc(C(=O)[O-])c2)C2=Nc4c5cc(Oc6cc(C(=O)[O-])cc(C(=O)[O-])c6)c(Oc6cc(C(=O)[O-])cc(C(=O)[O-])c6)cc5c5[n]4[Zn][n]4c(c6cc(Oc7cc(C(=O)[O-])cc(C(=O)[O-])c7)c(Oc7cc(C(=O)[O-])cc(C(=O)[O-])c7)cc6c4=NC4=NC(=N5)c5cc(Oc6cc(C(=O)[O-])cc(C(=O)[O-])c6)c(Oc6cc(C(=O)[O-])cc(C(=O)[O-])c6)cc54)=NC3=N2)cc(C(=O)[O-])c1.[Na+].[Na+].[Na+].[Na+].[Na+].[Na+].[Na+].[Na+].[Na+].[Na+].[Na+].[Na+].[Na+].[Na+].[Na+].[Na+] [A3Zn], the “Subcellular localization (HeLa)” value was “Ly”. In the case of C[n+]1cccc(Oc2ccc3c(c2)C2=NC3=Nc3c4cc(Oc5ccc[n+](C)c5)ccc4c4[n]3[Zn][n]3c(c5ccc(Oc6ccc[n+](C)c6)cc5c3=NC3=NC(=N4)c4cc(Oc5ccc[n+](C)c5)ccc43)=N2)c1.F[P-](F)(F)(F)(F)F.F[P-](F)(F)(F)(F)F.F[P-](F)(F)(F)(F)F.F[P-](F)(F)(F)(F)F [C5Zn-PF 6], the “Subcellular localization (HeLa)” value is reported as “Ly”. With O=C([O-])c1cc(C(=O)[O-])cc(-c2cc3c(cc2-c2cc(C(=O)[O-])cc(C(=O)[O-])c2)C2=Nc4c5cc(-c6cc(C(=O)[O-])cc(C(=O)[O-])c6)c(-c6cc(C(=O)[O-])cc(C(=O)[O-])c6)cc5c5[n]4[Zn][n]4c(c6cc(-c7cc(C(=O)[O-])cc(C(=O)[O-])c7)c(-c7cc(C(=O)[O-])cc(C(=O)[O-])c7)cc6c4=NC4=NC(=N5)c5cc(-c6cc(C(=O)[O-])cc(C(=O)[O-])c6)c(-c6cc(C(=O)[O-])cc(C(=O)[O-])c6)cc54)=NC3=N2)c1.[Na+].[Na+].[Na+].[Na+].[Na+].[Na+].[Na+].[Na+].[Na+].[Na+].[Na+].[Na+].[Na+].[Na+].[Na+].[Na+] [A4Zn] the “Subcellular localization (HeLa)” value was “Ly”. In the case of O=S(=O)([O-])c1ccc(Oc2cccc3c2C2=Cc4c5cccc(Oc6ccc(S(=O)(=O)[O-])c7cccnc67)c5c5[n]4[Zn][n]4c(c6cccc(Oc7ccc(S(=O)(=O)[O-])c8cccnc78)c6c4=CC3=N2)=CC2=NC(=C5)c3cccc(Oc4ccc(S(=O)(=O)[O-])c5cccnc45)c32)c2ncccc12.[Na+].[Na+].[Na+].[Na+] [A8Zn], the “Subcellular localization (HeLa)” value is reported as “Ly”. For Cc1cc(OCc2cn(CCOCCOCCO)nn2)c(Oc2nc3c(nc2Oc2c(OCc4cn(CCOCCOCCO)nn4)cc(C)cc2OCc2cn(CCOCCOCCO)nn2)C2=Nc4c5nc(Oc6c(OCc7cn(CCOCCOCCO)nn7)cc(C)cc6OCc6cn(CCOCCOCCO)nn6)c(Oc6c(OCc7cn(CCOCCOCCO)nn7)cc(C)cc6OCc6cn(CCOCCOCCO)nn6)nc5c5[n]4[Zn][n]4c(c6nc(Oc7c(OCc8cn(CCOCCOCCO)nn8)cc(C)cc7OCc7cn(CCOCCOCCO)nn7)c(Oc7c(OCc8cn(CCOCCOCCO)nn8)cc(C)cc7OCc7cn(CCOCCOCCO)nn7)nc6c4=NC4=NC(=N5)c5nc(Oc6c(OCc7cn(CCOCCOCCO)nn7)cc(C)cc6OCc6cn(CCOCCOCCO)nn6)c(Oc6c(OCc7cn(CCOCCOCCO)nn7)cc(C)cc6OCc6cn(CCOCCOCCO)nn6)nc54)=NC3=N2)c(OCc2cn(CCOCCOCCO)nn2)c1 [N7Zn], the “Subcellular localization (HeLa)” value was “Ly”. With O=S(=O)([O-])c1cc(S(=O)(=O)[O-])c2cc(Oc3cccc4c3C3=NC4=Nc4c5c(Oc6ccc7cc(S(=O)(=O)[O-])cc(S(=O)(=O)[O-])c7c6)cccc5c5[n]4[Zn][n]4c(c6cccc(Oc7ccc8cc(S(=O)(=O)[O-])cc(S(=O)(=O)[O-])c8c7)c6c4=NC4=NC(=N5)c5c(Oc6ccc7cc(S(=O)(=O)[O-])cc(S(=O)(=O)[O-])c7c6)cccc54)=N3)ccc2c1.[Na+].[Na+].[Na+].[Na+].[Na+].[Na+].[Na+].[Na+] [A7Zn] the “Subcellular localization (HeLa)” value was “Ly”. In the case of COCCOCCOCCOCCOc1ccc(OCCOCCOCCOCCOC)c2c1C1=NC2=Nc2c3ccccc3c3[n]2[Zn][n]2c(c4ccccc4c2=N1)=NC1=NC(=N3)c2ccccc21 [N1Zn], the “Subcellular localization (HeLa)” value is reported as “Mi”. In the case of C[n+]1cccc(Oc2cc3c(cc2Oc2ccc[n+](C)c2)C2=Nc4c5cc(Oc6ccc[n+](C)c6)c(Oc6ccc[n+](C)c6)cc5c5[n]4[Zn][n]4c(c6cc(Oc7ccc[n+](C)c7)c(Oc7ccc[n+](C)c7)cc6c4=NC4=NC(=N5)c5cc(Oc6ccc[n+](C)c6)c(Oc6ccc[n+](C)c6)cc54)=NC3=N2)c1.[I-].[I-].[I-].[I-].[I-].[I-].[I-].[I-] [C6Zn], the “Subcellular localization (HeLa)” value is reported as “Ly”. With OCc1cc(CO)cc(OCCCCSC2=C(SCCCCOc3cc(CO)cc(CO)c3)C3=Nc4c5ccccc5c5[n]4[Mg][n]4c(c6ccccc6c4=NC4=NC(=N5)c5ccccc54)=NC2=N3)c1 [N2Mg] the “Subcellular localization (HeLa)” value was “Ly”. With C[n+]1cccc(Oc2ccc3c(c2)C2=NC3=Nc3c4cc(Oc5ccc[n+](C)c5)ccc4c4[n]3[Zn][n]3c(c5ccc(Oc6ccc[n+](C)c6)cc5c3=NC3=NC(=N4)c4cc(Oc5ccc[n+](C)c5)ccc43)=N2)c1.O=S(=O)(O)O.O=S(=O)(O)O.O=S(=O)([O-])[O-].O=S(=O)([O-])[O-] [C5Zn-SO 4] the “Subcellular localization (HeLa)” value was “Ly”. For O=C([O-])c1cc(C(=O)[O-])cc(-c2nc3c(nc2-c2cc(C(=O)[O-])cc(C(=O)[O-])c2)C2=Nc4c5nc(-c6cc(C(=O)[O-])cc(C(=O)[O-])c6)c(-c6cc(C(=O)[O-])cc(C(=O)[O-])c6)nc5c5[n]4[Zn][n]4c(c6nc(-c7cc(C(=O)[O-])cc(C(=O)[O-])c7)c(-c7cc(C(=O)[O-])cc(C(=O)[O-])c7)nc6c4=NC4=NC(=N5)c5nc(-c6cc(C(=O)[O-])cc(C(=O)[O-])c6)c(-c6cc(C(=O)[O-])cc(C(=O)[O-])c6)nc54)=NC3=N2)c1.[Na+].[Na+].[Na+].[Na+].[Na+].[Na+].[Na+].[Na+].[Na+].[Na+].[Na+].[Na+].[Na+].[Na+].[Na+].[Na+] [A5Zn], the “Subcellular localization (HeLa)” value was “Ly”. With O=S(=O)([O-])c1ccc(Oc2ccc3c(c2)C2=Cc4c5ccc(Oc6ccc(S(=O)(=O)[O-])c7cccnc67)cc5c5[n]4[Zn][n]4c(c6ccc(Oc7ccc(S(=O)(=O)[O-])c8cccnc78)cc6c4=CC3=N2)=CC2=NC(=C5)c3ccc(Oc4ccc(S(=O)(=O)[O-])c5cccnc45)cc32)c2ncccc12.[Na+].[Na+].[Na+].[Na+] [A6Zn] the “Subcellular localization (HeLa)” value was “Ly”. For NCCc1ccc(Oc2cccc3c2C2=NC3=Nc3c4ccccc4c4[n]3[Zn][n]3c(c5ccccc5c3=N2)=NC2=NC(=N4)c3ccccc32)cc1 [C15Zn], the “Subcellular localization (HeLa)” value was “Ly”. For C[n+]1cccc(Oc2ccc3c(c2)C2=NC3=Nc3c4cc(Oc5ccc[n+](C)c5)ccc4c4[n]3[Zn][n]3c(c5ccc(Oc6ccc[n+](C)c6)cc5c3=NC3=NC(=N4)c4cc(Oc5ccc[n+](C)c5)ccc43)=N2)c1.[I-].[I-].[I-].[I-] [C5Zn-I], the “Subcellular localization (HeLa)” value was “Ly”. In the case of Cc1cc(OCc2cn(CCOCCOCCO)nn2)c(Oc2cc3c(cc2Oc2c(OCc4cn(CCOCCOCCO)nn4)cc(C)cc2OCc2cn(CCOCCOCCO)nn2)C2=Nc4c5ccccc5c5[n]4[Zn][n]4c(c6ccccc6c4=NC3=N2)=NC2=NC(=N5)c3ccccc32)c(OCc2cn(CCOCCOCCO)nn2)c1 [N3Zn], the “Subcellular localization (HeLa)” value is reported as “Ly”. For Cc1cc(OCc2cn(CCO[C@@H]3O[C@H](CO)[C@@H](O)[C@H](O)[C@H]3O)nn2)c(Oc2cc3c(cc2Oc2c(OCc4cn(CCO[C@@H]5O[C@H](CO)[C@@H](O)[C@H](O)[C@H]5O)nn4)cc(C)cc2OCc2cn(CCO[C@@H]4O[C@H](CO)[C@@H](O)[C@H](O)[C@H]4O)nn2)C2=Nc4c5ccccc5c5[n]4[Zn][n]4c(c6ccccc6c4=NC3=N2)=NC2=NC(=N5)c3ccccc32)c(OCc2cn(CCO[C@@H]3O[C@H](CO)[C@@H](O)[C@H](O)[C@H]3O)nn2)c1 [N4Zn], the “Subcellular localization (HeLa)” value was “Ly”.

Same assay, conditions: this work
In the case of COCCOCCOCCOCCOc1ccc(OCCOCCOCCOCCOC)c2c1C1=NC2=Nc2c3ccccc3c3[n]2[Zn][n]2c(c4ccccc4c2=N1)=NC1=NC(=N3)c2ccccc21 [N1Zn], the “Subcellular localization (HeLa), in words” value is reported as “exclusive mitochondrial localization”. In the case of O=C([O-])c1cc(Oc2cc3c(cc2Oc2cc(C(=O)[O-])cc(C(=O)[O-])c2)C2=Nc4c5ccccc5c5[n]4[Zn][n]4c(c6ccccc6c4=NC3=N2)=NC2=NC(=N5)c3ccccc32)cc(C(=O)[O-])c1.[Na+].[Na+].[Na+].[Na+] [A1Zn], the “Subcellular localization (HeLa), in words” value is reported as “Cytoplasmic membrane localization (in addition to that of lysosomes)”. For O=S(=O)([O-])c1ccc2c(c1)-c1nc-2nc2[nH]c(nc3nc(nc4[nH]c(n1)c1ccccc41)-c1ccc(S(=O)(=O)[O-])cc1-3)c1ccc(S(=O)(=O)[O-])cc21.[Na+].[Na+].[Na+] [A9H], the “Subcellular localization (HeLa), in words” value was “Cytoplasmic membrane localization (in addition to that of lysosomes)”. In the case of O=C([O-])c1cc(C(=O)[O-])cc(-c2cc3c(cc2-c2cc(C(=O)[O-])cc(C(=O)[O-])c2)C2=Nc4c5ccccc5c5[n]4[Zn][n]4c(c6ccccc6c4=NC3=N2)=NC2=NC(=N5)c3ccccc32)c1.[Na+].[Na+].[Na+].[Na+] [A2Zn], the “Subcellular localization (HeLa), in words” value is reported as “Cytoplasmic membrane localization (in addition to that of lysosomes)”.

Test system: HeLa cells
Experiment: not given
Parameters: method as in number not printed in Table 2
Details: 12 h incubation; determined previously at the same workplace and published; ref number not given; cited from earlier work
In the case of Cc1cc(Cn2cc[n+](C)c2)c(Oc2c3c(c(C)c(C)[n+]2C)C2=NC3=Nc3c4ccccc4c4[n]3[Zn][n]3c(c5ccccc5c3=N2)=NC2=NC(=N4)c3ccccc32)c(Cn2cc[n+](C)c2)c1.[I-].[I-].[I-] [C1Zn], the “Subcellular localization (HeLa)” value is given as “Ly, Me”.

From PMC12951568, “Identifying Structural Factors Governing the Photodynamic Activity of Phthalocyanines” (Journal of Medicinal Chemistry, 2026)
